Data: PubChem BioAssay AID720532 (National Center for Advancing Translational Sciences (NCATS), 2013)
This is a selection; strong and weak results do not stand in their true shares. Inconclusive results are not listed. Activity calls are given as the source filed them. Calls follow the shape of the full dose curve; tested in HEK293 cells.

test: qHTS for Inhibitors of binding or entry into cells for Marburg Virus; settings: Marburg virus pseudotype entry/binding inhibition, cell-based; series mostly up to 49.2 µM; activity change, negative = inhibition: at the top concentration
% is scaled to controls: 0 for no effect and ±100 for the full control effect; potency is read from the fitted curve at half-maximal effect.

**Q.** For Fc1ccc(-c2ncn(C3CCNCC3)c2-c2ccnc(Oc3cccc(C(F)(F)F)c3)n2)cc1, which Potency is on record?
**A.** Its Potency is active: 4.99 µM.

**Q.** For O=C1NC(=O)c2c1c(-c1ccccc1)cc1[nH]c3ccc(O)cc3c21, which Potency is on record?
**A.** The Potency was active: 2.82 µM.

**Q.** Which Potency does the source give for Fc1ccc(-c2ncn(C3CCNCC3)c2-c2ccnc(Oc3cccc(F)c3)n2)cc1 here?
**A.** The Potency was active: 3.53 µM.

**Q.** With O=C1NC(=O)C(c2ccccc2)=C1Nc1ccccc1 as the compound, how does the “activity change, negative = inhibition” value read?
**A.** The value was inactive: 32%.

**Q.** For COc1ccccc1Oc1nccc(-c2c(-c3ccc(F)cc3)ncn2C2CCNCC2)n1, which Potency is on record?
**A.** Its Potency is active: 12.5 µM.

**Q.** Which Potency does the source give for Fc1ccc(-c2ncn(C3CCNCC3)c2-c2ccnc(Oc3ccc(Cl)cc3)n2)cc1 here?
**A.** Its Potency is active: 6.28 µM.
